Data source: PubChem BioAssay AID652272 (Drosophila RNAi Screening Center, 2013)

Purpose: 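Finding fly genes that regulate Hedgehog signal transduction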 (primary screen)
Cell system: Drosophila clone 8 (Cl8) cells
Knock-down reagent: long dsRNA against Drosophila genes
Read-out: 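Plate reader light from a firefly reporter under a ptc promoter fragment that responds to Hedgehog, with Renilla light as transfection reference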
Reading the numbers: firefly Hh reporter signal: higher = more ptc reporter light; Renilla reference signal: higher = more Renilla control light
Hit rule: 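Hit when the z-score averaged over two replicates is under -2 or over +3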
Calls: active = hit: reporter lowered or raised; inactive = not a hit
The screen tested about 21,000 reagents; shown is a random part of those that have a named target and a result. Of all reagents, 503 (2.4%) are marked active. 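Raw plate light values, not normalised; calls rest on replicate z-scores that were not deposited; hits include reporter decreases as well as increases.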 Entries without a mark were called inactive. The record does not give: the amount of reagent, the time to read-out.

no.	Target gene	dsRNA	firefly Hh reporter signal, replicate 1	firefly Hh reporter signal, replicate 2	Renilla reference signal, replicate 1	Renilla reference signal, replicate 2
1	conu	DRSC07810	1.25e5	3.43e5	3545	13552
2	Cys	DRSC16637	1.04e5	1.10e5	3515	3236
3	Pex1	DRSC11358	1.03e5	47267	3856	2144
4	CG32026	DRSC08950	1.24e5	2.13e5	3538	8356
5	CG13407	DRSC14583	6.84e5	1.75e5	31664	3843
6	CG3164	DRSC00572	94589	86508	2028	1952
7	ninaD	DRSC02886	1.04e5	73549	2640	5059
8	Akh	DRSC08138	80826	53448	2485	3765
9	CG11790	DRSC14390	95450	1.00e5	3741	4400
10	CG14073	DRSC10078	1.12e5		3776	2258
11	bc10	DRSC11326	54093	59386	5568	3949
12	CG8665	DRSC03098	1.04e5	74167	2368	5930
13	cyc	DRSC11337	61923	1.14e5	2776	3336
14	ND-15	DRSC00311	1.83e5	96496	5399	3857
15	Spn31A	DRSC02780	1.11e5	35808	2724	3785
16	CG32486	DRSC08413	62636	53245	3721	2528
17	CG32486	DRSC08488	56320	53040	2592	3949
18	Zn72D	DRSC11318	70098	43872	2160	1717
19	CG4409	DRSC06869	95659	41216	2666	3719
20	Nfs1	DRSC02154	55488	51868	2688	2663
21	Kif3C	DRSC17209	84502	1.55e5	2322	6921
22	Kif3C	DRSC17210	1.02e5	1.90e5	3776	7811
23	CG15155	DRSC02456	1.12e5	67014	2907	6520
24	CG8841	DRSC07286	60928	60946	2279	2406
25	Vps35	DRSC04519	64436	63800	2624	2573
26	fzr2	DRSC04280	1.01e5	92470	4071	3809
27	SdhCL	DRSC16078	1.33e5	1.76e5	3888	4793
28	APC4	DRSC18360	1.07e5	1.02e5	2907	2336
29	mRpL12	DRSC10467	98893	56586	4112	2544
30	PK2-R1	DRSC16447	89866	87426	2823	2546
31	kermit	DRSC06074	80819	52416	3290	2229
32	CG4025	DRSC18523	1.34e5	2.50e5	5105	9174
33	CG1142	DRSC12531	1.33e5	1.61e5	4087	5496
34	Nplp4	DRSC00391	1.23e5	1.17e5	3219	2172
35	CG30286	DRSC04070	71914	73288	2353	6644
36	Cpr49Ac	DRSC07199	1.08e5	98657	4560	3643
37	mat	DRSC08376	1.43e5	66416	4835	5131
38	lncRNA:CR42646	DRSC04759	1.06e5	2.18e5	2290	8932
39	Tsp86D	DRSC15607	72999	1.26e5	2690	3779

In a second layout: 6 of the entries above.
PK2-R1 [DRSC16447] | firefly Hh reporter signal, replicate 1 = 89866; firefly Hh reporter signal, replicate 2 = 87426; Renilla reference signal, replicate 1 = 2823; Renilla reference signal, replicate 2 = 2546
kermit [DRSC06074] | firefly Hh reporter signal, replicate 1 = 80819; firefly Hh reporter signal, replicate 2 = 52416; Renilla reference signal, replicate 1 = 3290; Renilla reference signal, replicate 2 = 2229
CG4025 [DRSC18523] | firefly Hh reporter signal, replicate 1 = 1.34e5; firefly Hh reporter signal, replicate 2 = 2.50e5; Renilla reference signal, replicate 1 = 5105; Renilla reference signal, replicate 2 = 9174
CG1142 [DRSC12531] | firefly Hh reporter signal, replicate 1 = 1.33e5; firefly Hh reporter signal, replicate 2 = 1.61e5; Renilla reference signal, replicate 1 = 4087; Renilla reference signal, replicate 2 = 5496
Nplp4 [DRSC00391] | firefly Hh reporter signal, replicate 1 = 1.23e5; firefly Hh reporter signal, replicate 2 = 1.17e5; Renilla reference signal, replicate 1 = 3219; Renilla reference signal, replicate 2 = 2172
CG30286 [DRSC04070] | firefly Hh reporter signal, replicate 1 = 71914; firefly Hh reporter signal, replicate 2 = 73288; Renilla reference signal, replicate 1 = 2353; Renilla reference signal, replicate 2 = 6644
